Data: paper PMC7041280
These are yes or no findings as the source states them, for the method shown. Binding seen in cells or lysates may run through a third protein. Some entries that bind do so weakly or less than the wild type.

By UniProt entry, the sequences of proteins in these tests, tags left out. Residues count along the entry.
UniProt P98088, residues 28-5654: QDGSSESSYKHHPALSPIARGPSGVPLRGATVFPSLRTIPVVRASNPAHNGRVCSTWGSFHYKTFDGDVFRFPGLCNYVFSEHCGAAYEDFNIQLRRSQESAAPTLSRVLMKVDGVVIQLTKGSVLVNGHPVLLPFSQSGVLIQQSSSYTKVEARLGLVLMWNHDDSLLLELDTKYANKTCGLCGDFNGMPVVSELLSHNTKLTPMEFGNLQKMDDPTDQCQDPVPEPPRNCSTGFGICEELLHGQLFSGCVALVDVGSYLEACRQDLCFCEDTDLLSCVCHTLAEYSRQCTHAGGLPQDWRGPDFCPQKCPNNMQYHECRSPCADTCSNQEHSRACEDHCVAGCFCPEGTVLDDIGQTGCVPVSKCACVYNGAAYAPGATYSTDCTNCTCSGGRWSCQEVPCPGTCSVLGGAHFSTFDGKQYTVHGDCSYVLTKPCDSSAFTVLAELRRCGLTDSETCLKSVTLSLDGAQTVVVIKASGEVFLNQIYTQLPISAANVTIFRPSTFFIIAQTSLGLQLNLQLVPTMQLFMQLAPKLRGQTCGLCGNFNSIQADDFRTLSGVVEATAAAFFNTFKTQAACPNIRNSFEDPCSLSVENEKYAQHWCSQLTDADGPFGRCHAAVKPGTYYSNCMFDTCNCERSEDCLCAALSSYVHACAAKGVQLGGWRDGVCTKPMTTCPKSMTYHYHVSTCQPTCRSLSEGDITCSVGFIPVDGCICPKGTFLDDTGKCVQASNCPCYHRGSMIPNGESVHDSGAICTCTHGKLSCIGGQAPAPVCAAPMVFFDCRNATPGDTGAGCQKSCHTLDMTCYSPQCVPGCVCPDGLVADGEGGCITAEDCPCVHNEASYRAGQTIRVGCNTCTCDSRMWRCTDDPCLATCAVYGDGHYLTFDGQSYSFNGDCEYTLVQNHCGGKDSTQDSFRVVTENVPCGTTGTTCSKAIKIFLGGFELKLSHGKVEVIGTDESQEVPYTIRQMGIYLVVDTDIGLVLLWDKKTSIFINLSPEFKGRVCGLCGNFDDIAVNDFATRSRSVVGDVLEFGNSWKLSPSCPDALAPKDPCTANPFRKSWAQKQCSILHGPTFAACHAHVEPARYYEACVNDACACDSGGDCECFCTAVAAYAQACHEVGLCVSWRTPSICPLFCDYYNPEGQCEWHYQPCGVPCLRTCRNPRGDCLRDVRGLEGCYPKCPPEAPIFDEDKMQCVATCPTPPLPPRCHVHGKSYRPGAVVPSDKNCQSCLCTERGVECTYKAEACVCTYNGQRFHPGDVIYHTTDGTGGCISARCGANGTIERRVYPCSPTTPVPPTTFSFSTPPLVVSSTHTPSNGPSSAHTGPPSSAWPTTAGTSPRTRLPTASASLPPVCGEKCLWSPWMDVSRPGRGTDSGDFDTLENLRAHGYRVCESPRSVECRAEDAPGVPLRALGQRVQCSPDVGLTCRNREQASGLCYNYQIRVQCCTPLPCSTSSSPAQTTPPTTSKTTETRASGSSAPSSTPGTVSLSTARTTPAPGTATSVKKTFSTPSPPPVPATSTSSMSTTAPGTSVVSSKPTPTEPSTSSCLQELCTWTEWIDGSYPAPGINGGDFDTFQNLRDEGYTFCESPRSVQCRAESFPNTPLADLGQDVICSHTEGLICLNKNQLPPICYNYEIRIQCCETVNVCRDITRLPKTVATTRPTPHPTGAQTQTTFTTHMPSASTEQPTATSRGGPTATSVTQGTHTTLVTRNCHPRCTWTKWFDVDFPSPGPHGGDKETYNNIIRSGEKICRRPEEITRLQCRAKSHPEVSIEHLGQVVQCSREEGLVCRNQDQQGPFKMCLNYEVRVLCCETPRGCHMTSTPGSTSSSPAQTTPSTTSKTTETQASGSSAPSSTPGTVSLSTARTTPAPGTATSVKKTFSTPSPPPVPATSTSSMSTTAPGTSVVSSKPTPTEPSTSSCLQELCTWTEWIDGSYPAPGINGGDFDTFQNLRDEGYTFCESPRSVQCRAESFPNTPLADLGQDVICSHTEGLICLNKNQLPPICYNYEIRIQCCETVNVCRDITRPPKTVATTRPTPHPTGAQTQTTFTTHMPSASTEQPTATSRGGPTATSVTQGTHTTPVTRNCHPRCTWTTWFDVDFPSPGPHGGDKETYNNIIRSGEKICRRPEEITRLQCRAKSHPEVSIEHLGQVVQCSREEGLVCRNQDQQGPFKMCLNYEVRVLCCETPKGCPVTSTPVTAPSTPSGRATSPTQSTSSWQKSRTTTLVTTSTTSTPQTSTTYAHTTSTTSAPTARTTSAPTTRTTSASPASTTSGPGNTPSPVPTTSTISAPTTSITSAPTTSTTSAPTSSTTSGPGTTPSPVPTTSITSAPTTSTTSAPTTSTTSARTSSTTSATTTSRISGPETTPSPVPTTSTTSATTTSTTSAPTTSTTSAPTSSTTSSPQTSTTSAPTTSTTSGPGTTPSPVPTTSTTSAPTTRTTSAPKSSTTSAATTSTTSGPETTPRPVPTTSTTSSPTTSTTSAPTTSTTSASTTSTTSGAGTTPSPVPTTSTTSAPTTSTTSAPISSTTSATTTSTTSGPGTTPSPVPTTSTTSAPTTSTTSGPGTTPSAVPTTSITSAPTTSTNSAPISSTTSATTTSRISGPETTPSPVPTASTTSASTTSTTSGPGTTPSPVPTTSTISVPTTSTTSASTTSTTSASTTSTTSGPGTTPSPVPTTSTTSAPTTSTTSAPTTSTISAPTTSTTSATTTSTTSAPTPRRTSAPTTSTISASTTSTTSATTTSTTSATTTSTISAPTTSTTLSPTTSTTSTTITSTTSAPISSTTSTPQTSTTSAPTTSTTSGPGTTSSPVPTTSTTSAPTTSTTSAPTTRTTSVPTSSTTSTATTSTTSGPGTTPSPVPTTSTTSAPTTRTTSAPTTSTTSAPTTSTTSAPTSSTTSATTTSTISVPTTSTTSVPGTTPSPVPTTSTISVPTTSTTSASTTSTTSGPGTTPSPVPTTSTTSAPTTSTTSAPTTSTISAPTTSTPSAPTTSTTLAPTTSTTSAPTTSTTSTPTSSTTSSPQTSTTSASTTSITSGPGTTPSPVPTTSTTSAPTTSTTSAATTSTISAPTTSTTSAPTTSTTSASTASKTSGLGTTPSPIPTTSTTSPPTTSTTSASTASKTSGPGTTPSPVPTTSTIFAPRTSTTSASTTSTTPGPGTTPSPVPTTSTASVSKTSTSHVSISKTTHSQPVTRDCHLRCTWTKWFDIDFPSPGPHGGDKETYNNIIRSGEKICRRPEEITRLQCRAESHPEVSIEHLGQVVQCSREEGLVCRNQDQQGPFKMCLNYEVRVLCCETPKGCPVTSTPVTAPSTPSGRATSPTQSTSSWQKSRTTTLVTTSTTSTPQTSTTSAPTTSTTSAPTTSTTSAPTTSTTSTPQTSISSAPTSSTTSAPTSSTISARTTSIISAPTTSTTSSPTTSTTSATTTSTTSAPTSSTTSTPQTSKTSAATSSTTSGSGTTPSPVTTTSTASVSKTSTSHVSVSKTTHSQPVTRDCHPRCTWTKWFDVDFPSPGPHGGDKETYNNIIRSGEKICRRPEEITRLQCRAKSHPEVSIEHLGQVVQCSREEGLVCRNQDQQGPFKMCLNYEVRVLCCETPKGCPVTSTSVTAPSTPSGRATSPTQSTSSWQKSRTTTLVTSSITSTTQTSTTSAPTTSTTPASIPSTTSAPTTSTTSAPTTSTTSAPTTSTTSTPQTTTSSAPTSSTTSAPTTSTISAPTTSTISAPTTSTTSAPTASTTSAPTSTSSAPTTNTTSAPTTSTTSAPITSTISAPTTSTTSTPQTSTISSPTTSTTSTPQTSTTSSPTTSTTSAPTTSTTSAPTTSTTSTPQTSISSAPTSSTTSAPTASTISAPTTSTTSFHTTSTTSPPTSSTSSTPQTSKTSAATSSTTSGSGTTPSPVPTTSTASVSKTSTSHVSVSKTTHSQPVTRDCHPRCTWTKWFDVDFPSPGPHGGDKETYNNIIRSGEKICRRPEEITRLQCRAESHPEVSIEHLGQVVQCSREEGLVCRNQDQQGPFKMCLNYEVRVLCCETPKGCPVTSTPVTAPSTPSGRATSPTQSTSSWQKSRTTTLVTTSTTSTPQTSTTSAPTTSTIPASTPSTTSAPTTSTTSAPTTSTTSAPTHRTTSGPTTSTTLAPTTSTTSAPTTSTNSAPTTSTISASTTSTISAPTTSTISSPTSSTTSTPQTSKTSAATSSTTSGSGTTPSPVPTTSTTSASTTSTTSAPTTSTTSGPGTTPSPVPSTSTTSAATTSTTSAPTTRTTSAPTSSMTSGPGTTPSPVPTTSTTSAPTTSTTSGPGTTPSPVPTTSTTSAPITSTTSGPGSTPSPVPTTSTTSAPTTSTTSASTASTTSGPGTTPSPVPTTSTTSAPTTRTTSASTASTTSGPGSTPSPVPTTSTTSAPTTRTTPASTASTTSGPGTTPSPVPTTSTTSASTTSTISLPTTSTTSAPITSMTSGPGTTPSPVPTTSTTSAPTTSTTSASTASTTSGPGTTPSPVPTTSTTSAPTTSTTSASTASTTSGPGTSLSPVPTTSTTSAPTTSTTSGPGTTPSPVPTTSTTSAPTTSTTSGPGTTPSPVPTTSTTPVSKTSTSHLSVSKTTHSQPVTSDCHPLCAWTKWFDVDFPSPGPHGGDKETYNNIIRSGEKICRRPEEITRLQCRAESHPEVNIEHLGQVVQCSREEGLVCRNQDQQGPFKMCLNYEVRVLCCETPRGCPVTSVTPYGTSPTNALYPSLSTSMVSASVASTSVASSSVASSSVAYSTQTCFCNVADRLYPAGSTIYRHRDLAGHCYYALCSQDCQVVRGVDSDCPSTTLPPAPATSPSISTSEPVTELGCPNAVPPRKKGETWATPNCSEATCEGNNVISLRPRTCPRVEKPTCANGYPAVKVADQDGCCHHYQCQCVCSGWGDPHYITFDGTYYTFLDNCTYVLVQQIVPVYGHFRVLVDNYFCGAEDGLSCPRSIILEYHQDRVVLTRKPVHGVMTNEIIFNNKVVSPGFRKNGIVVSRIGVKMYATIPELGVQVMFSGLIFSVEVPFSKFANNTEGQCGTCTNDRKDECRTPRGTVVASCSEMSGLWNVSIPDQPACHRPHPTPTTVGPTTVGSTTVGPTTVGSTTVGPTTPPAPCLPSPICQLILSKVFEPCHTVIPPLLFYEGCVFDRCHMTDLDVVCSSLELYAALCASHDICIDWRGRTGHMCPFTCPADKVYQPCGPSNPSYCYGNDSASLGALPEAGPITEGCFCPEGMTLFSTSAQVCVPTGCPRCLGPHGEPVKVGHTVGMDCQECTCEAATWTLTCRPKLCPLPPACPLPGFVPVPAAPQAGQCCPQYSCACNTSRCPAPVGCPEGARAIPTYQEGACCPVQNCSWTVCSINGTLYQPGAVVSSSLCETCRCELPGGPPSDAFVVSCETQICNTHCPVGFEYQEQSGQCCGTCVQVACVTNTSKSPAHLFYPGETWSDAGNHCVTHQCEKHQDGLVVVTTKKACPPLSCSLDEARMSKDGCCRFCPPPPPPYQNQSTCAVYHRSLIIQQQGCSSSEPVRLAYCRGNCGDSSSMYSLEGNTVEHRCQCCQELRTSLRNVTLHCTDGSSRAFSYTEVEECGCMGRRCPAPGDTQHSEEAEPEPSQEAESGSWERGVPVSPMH
UniProt P16070, residues 21-742: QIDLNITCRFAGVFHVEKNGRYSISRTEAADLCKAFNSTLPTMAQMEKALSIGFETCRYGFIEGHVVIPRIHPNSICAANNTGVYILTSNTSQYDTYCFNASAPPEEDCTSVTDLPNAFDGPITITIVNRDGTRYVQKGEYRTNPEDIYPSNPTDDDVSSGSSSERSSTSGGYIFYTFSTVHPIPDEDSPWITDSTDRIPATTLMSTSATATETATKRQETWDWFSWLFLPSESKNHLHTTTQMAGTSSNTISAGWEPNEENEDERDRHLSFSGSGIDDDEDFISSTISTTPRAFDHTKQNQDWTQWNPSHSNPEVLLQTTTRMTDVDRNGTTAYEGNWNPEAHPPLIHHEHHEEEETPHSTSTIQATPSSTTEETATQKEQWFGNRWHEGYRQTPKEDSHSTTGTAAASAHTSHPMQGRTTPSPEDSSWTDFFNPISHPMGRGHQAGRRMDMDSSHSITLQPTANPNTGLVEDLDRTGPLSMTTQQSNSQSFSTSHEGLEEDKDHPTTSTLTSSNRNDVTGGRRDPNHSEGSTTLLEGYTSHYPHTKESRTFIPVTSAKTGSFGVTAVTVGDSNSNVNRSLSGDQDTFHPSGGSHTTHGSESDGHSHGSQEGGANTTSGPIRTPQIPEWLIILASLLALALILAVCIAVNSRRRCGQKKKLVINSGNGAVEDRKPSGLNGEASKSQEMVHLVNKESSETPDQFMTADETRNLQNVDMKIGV

Biological target: MUC5AC (human (endogenous in HCT-8 and LS174T)) (UniProt P98088)
Assay: co-IP; endogenous proteins from HCT-8 and LS174T lysates (1 mg/ml, pre-cleared); MUC5AC antibody (3 ug) on protein A/G plus agarose beads, 4 °C, 5-6 h; washed with RIPA buffer; blot with anti-CD44; IgG isotype control

Substance: CD44 (from UniProt P16070 21-742) (receptor)
- binding: binds
